Test system: Tte preQ1-Riboswitch aptamer domain
Assay: MST off-target counter screen, preQ1-riboswitch aptamer domain
Assay type: binding, Thermoanaerobacter tengcongensis
Details: at high concentrations
Protocol: Off-target counter screens by MST were performed as described previously.[31,84] Briefly, the 5′-Cy5-labelled Tte preQ1-Riboswitch aptamer domain (Biomers.net GmbH) was heated to 75 °C for 5 min, cooled down to room temperature for at least 20 min and then diluted to 20 nM in MST buffer (50 mM Tris-HCl pH 7.5, 100 mM KCl, 25 mM MgCl2) and supplemented with compounds 4, 5, 8–13, 18, 21, 22 and 26 to final concentrations of 1000, 100, 10 and 0.001 μM. PreQ1 was used as a positive control. The 5′-Cy5-labelled B. angulatum SAM VI-Riboswitch aptamer domain (Eurofins Genomics GmbH) was heated to 75 °C for 5 min, cooled down to room temperature for at least 20 min and then diluted to 20 nM in MST buffer (50 mM Tris-HCl pH 7.5, 100 mM KCl, 25 mM MgCl2) and supplemented with compounds 5, 9 and 28 to final concentrations of 1000, 100, 10 and 0.001 μM. SAM was used as a positive control. For each experiment, one DMSO negative control was carried out. The final DMSO concentration was 2%. All measurements were performed at least as duplicates for pre-screening and triplicates for KD-determination. MST measurements were analyzed from signals after 18 s laser on-time using the MO.Affinity Analysis software (version 2.3) and exported for statistical analysis and plotting in GraphPad Prism (version 8.0.1., GraphPad Software, Boston, Massachusetts USA, https://www.graphpad.com).

Structure (SMILES)	aggregation in preQ1-riboswitch MST counter-screening
CC(C)NCC(O)COc1ccc2[nH]cc(CCN)c2c1 (centres unmarked) [Compound 11]	AggregaƟon
N=C(N)NC(=O)c1nc(Cl)c(N)nc1N [Compound 26, amiloride, reference compound]	AggregaƟon

— article PMC11110755, “Structure-based virtual screening of unbiased and RNA-focused libraries to identify new ligands for the HCV IRES model system” (RSC Medicinal Chemistry, 2024)
